{"source": "PubChem BioAssay AID1259405 | NCATS – 2018", "aim": "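Silenced genes that increase secreted GFP made by CHO cells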 (primary screen)", "cells": "Chinese hamster CHO-K1 ovary cells with stable secreted eGFP expression", "knock-down reagent": "single siRNA against mouse genes, 0.8 pmol siRNA per well (2 µl of 400 nM stock)", "time to read-out": "3 days", "measured": "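Per-well intracellular GFP measured by laser scanning cytometry, plus viability from ATP luminescence, each relative to plate median of non-targeting control wells, in %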", "reading the numbers": "GFP, % of control: higher = more GFP per well, higher productivity; viability (ATP), % of control: higher = more viable cells (more ATP)", "rule for the call": "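Called active when intracellular GFP, relative to negative control, is at or above 120%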", "note": "Shown is one part, drawn at random, of about 50,000 reagents tested. Of all reagents, about 4,000 (8%) got an active call. 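Mouse siRNA library applied to hamster cells; one well for each siRNA.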 Unmarked entries are inactive. Reagents against one gene are numbered here. Reagent sequences are not shown."}
{"target":"Tut4 (terminal uridylyl transferase 4)","siRNA no.":1,"GFP, % of control":51.8,"viability (ATP), % of control":56.9}
{"target":"Tut4 (terminal uridylyl transferase 4)","siRNA no.":2,"GFP, % of control":63.4,"viability (ATP), % of control":47.9}
{"target":"Tut4 (terminal uridylyl transferase 4)","siRNA no.":3,"GFP, % of control":79.7,"viability (ATP), % of control":109}
{"target":"Oas1b (2'-5' oligoadenylate synthetase 1B)","siRNA no.":1,"GFP, % of control":"126 (active)","viability (ATP), % of control":35.3}
{"target":"Oas1b (2'-5' oligoadenylate synthetase 1B)","siRNA no.":2,"GFP, % of control":81.6,"viability (ATP), % of control":68.1}
{"target":"Oas1b (2'-5' oligoadenylate synthetase 1B)","siRNA no.":3,"GFP, % of control":42.8,"viability (ATP), % of control":57.4}
{"target":"Dnajb5 (DnaJ heat shock protein family (Hsp40) member B5)","siRNA no.":1,"GFP, % of control":68.9,"viability (ATP), % of control":73}
{"target":"Dnajb5 (DnaJ heat shock protein family (Hsp40) member B5)","siRNA no.":2,"GFP, % of control":72.1,"viability (ATP), % of control":80.1}
{"target":"Dnajb5 (DnaJ heat shock protein family (Hsp40) member B5)","siRNA no.":3,"GFP, % of control":55.7,"viability (ATP), % of control":105}
{"target":"Eif4ebp3","siRNA no.":1,"GFP, % of control":63.2,"viability (ATP), % of control":53.5}
{"target":"Eif4ebp3","siRNA no.":2,"GFP, % of control":59.7,"viability (ATP), % of control":54}
{"target":"Eif4ebp3","siRNA no.":3,"GFP, % of control":107,"viability (ATP), % of control":65.1}
{"target":"Nae1 (NEDD8 activating enzyme E1 subunit 1)","siRNA no.":1,"GFP, % of control":119,"viability (ATP), % of control":76.6}
{"target":"Nae1 (NEDD8 activating enzyme E1 subunit 1)","siRNA no.":2,"GFP, % of control":59,"viability (ATP), % of control":56.5}
{"target":"Nae1 (NEDD8 activating enzyme E1 subunit 1)","siRNA no.":3,"GFP, % of control":69,"viability (ATP), % of control":76.8}
{"target":"Rab8a (RAB8A, member RAS oncogene family)","siRNA no.":1,"GFP, % of control":80.4,"viability (ATP), % of control":105}
{"target":"Rab8a (RAB8A, member RAS oncogene family)","siRNA no.":2,"GFP, % of control":73.7,"viability (ATP), % of control":43.5}
{"target":"Rab8a (RAB8A, member RAS oncogene family)","siRNA no.":3,"GFP, % of control":47.2,"viability (ATP), % of control":65.7}

Reagents above marked active, once more:
{"target":"Oas1b (2'-5' oligoadenylate synthetase 1B)","siRNA no.":1,"GFP, % of control":"126 (active)","viability (ATP), % of control":35.3}
